Some results were stated once for a whole list of compounds, not compound by compound. At least one compound was matched to its structure with a doubt left.
Tests used:
Type in all cases: in vivo
[1] = test system: potato leafhopper (Empoasca fabae); assay: Test C: control of potato leafhopper on Soleil bean plant, contact and/or systemic; conditions: adults, assessed after 6 days, replicated three times
[2] = test system: cat flea (Ctenocephalides felis); assay: Test I: control of cat flea on orally dosed CD-1 mouse; conditions: mouse orally dosed 10 mg/kg; fleas applied 2 hours after dosing; mortality 48 hours after flea application
[3] = test system: cat flea (Ctenocephalides felis Bouche); assay: Test J: control of cat flea, treated filter paper contact test; conditions: 20 μL of 500 ppm solution on filter paper; adult fleas; mortality 48 hours later
[4] = test system: green peach aphid (Myzus persicae); assay: Test F: control of green peach aphid on radish plant, contact and/or systemic; conditions: sprayed at 250 ppm; assessed after 6 days; replicated three times

SMILES | control efficacy (mortality): very good to excellent levels ([1]; sprayed at 50 ppm) | control efficacy (mortality): very good to excellent levels ([1]; sprayed at 250 ppm) | flea mortality [2] | flea mortality [3] | mortality [4]
CS(=N)(=O)CCNC(=O)c1ccc(C2=NOC(c3cc(Cl)cc(Cl)c3)(C(F)(F)F)C2)c2ccccc12 (centres unmarked) [Compound 94] | ≥ 80% | ≥ 80% | – | – | –
O=C(NCCSCC(F)(F)F)c1ccc(C2=NOC(c3cccc(C(F)(F)F)c3)(C(F)(F)F)C2)c2ccccc12 (racemic) [Compound 22] | ≥ 80% | ≥ 80% | ≥ 50% | – | –
CSCCNC(=O)CNC(=O)c1ccc(C2=NOC(c3cc(Cl)c(Cl)c(Cl)c3)(C(F)(F)F)C2)c2ccccc12 (centres unmarked) [Compound 49] | ≥ 80% | ≥ 80% | – | ≥ 50% | –
O=C(NCCCSCC(F)(F)F)c1ccc(C2=NOC(c3cccc(C(F)(F)F)c3)(C(F)(F)F)C2)c2ccccc12 (racemic) [Compound 21] | – | ≥ 80% | ≥ 50% | – | –
O=C(NCC(Cl)CCCCl)c1ccc(C2=NOC(c3cc(Cl)cc(Cl)c3)(C(F)(F)F)C2)c2ccccc12 (mixture of isomers) [Compound 14] | ≥ 80% | ≥ 80% | – | – | –
C[C@@H](NC(=O)c1ccc(C2=NOC(c3cc(C(F)(F)F)cc(C(F)(F)F)c3)(C(F)(F)F)C2)c2ccccc12)C(=O)NC1CC1 (some centres unmarked) [Compound 64] | ≥ 80% | ≥ 80% | ≥ 50% | – | –
CNC(=O)[C@@H]1CCCN1C(=O)c1ccc(C2=NOC(c3cc(Cl)cc(Cl)c3)(C(F)(F)F)C2)c2ccccc12 (some centres unmarked) [Compound 103] | ≥ 80% | ≥ 80% | – | – | –
O=C(CNC(=O)c1ccc(C2=NOC(c3cc(Cl)cc(OC(F)(F)F)c3)(C(F)(F)F)C2)c2ccccc12)NCC1CC1 (centres unmarked) [Compound 81] | ≥ 80% | – | ≥ 50% | – | at least 80%
O=C(NCc1ccccn1)c1ccc(C2=NOC(c3cc(Cl)cc(Cl)c3)(C(F)(F)F)C2)c2ccoc12 (centres unmarked) [Compound 107] | – | – | ≥ 50% | – | –
O=C(NCC(=O)N1CCCCC1)c1ccc(C2=NOC(c3cc(Cl)cc(Cl)c3)(C(F)(F)F)C2)c2ccccc12 (centres unmarked) [Compound 89] | – | – | – | ≥ 50% | –
CS(=O)(CCNC(=O)c1ccc(C2=NOC(c3cc(Cl)cc(Cl)c3)(C(F)(F)F)C2)c2ccccc12)=NC(=O)C(F)(F)F (centres unmarked) [Compound 93] | ≥ 80% | ≥ 80% | ≥ 50% | – | at least 80%
CCNC(=O)[C@H]1CCCN1C(=O)c1ccc(C2=NOC(c3cc(Cl)cc(Cl)c3)(C(F)(F)F)C2)c2ccccc12 (some centres unmarked) [Compound 106] | ≥ 80% | ≥ 80% | – | – | –
C[C@@H](NC(=O)c1ccc(C2=NOC(c3cc(C(F)(F)F)cc(C(F)(F)F)c3)(C(F)(F)F)C2)c2ccccc12)C(=O)NCC1CC1(F)F (some centres unmarked) [Compound 80] | ≥ 80% | ≥ 80% | ≥ 50% | – | at least 80%
O=C(CNC(=O)c1ccc(C2=NOC(c3cc(C(F)(F)F)cc(C(F)(F)F)c3)(C(F)(F)F)C2)c2ccccc12)NC1CC1 (centres unmarked) [Compound 55] | ≥ 80% | ≥ 80% | ≥ 50% | – | at least 80%
CNC(=O)[C@H]1CCCN1C(=O)c1ccc(C2=NOC(c3cc(Cl)cc(Cl)c3)(C(F)(F)F)C2)c2ccccc12 (some centres unmarked) [Compound 104] | ≥ 80% | ≥ 80% | – | – | –
CC(NC(=O)c1ccc(C2=NOC(c3cc(Cl)cc(C(F)(F)F)c3)(C(F)(F)F)C2)c2ccccc12)C(=O)O (mixture of isomers) [Compound 32] | ≥ 80% | ≥ 80% | – | – | –
C[C@@H](NC(=O)c1ccc(C2=NOC(c3cc(C(F)(F)F)cc(C(F)(F)F)c3)(C(F)(F)F)C2)c2ccccc12)C(=O)NCC1CC1 (some centres unmarked) [Compound 66] | ≥ 80% | ≥ 80% | ≥ 50% | – | at least 80%
O=C(CNC(=O)c1ccc(C2=NOC(c3cccc(C(F)(F)F)c3)(C(F)(F)F)C2)c2ccccc12)NC1CC1 (centres unmarked) [Compound 54] | ≥ 80% | ≥ 80% | ≥ 50% | – | –
CN(CCCNC(=O)c1ccc(C2=NOC(c3cc(Cl)cc(Cl)c3)(C(F)(F)F)C2)c2ccccc12)C(=O)OC(C)(C)C (racemic) [Compound 3] | – | ≥ 80% | – | ≥ 50% | –

SMILES | control efficacy (mortality): very good to excellent levels ([1]; sprayed at 50 ppm) | control efficacy (mortality): very good to excellent levels ([1]; sprayed at 250 ppm) | flea mortality [2] | flea mortality [3] | mortality [4]
CC1(C)OCC(CNC(=O)c2ccc(C3=NOC(c4cccc(C(F)(F)F)c4)(C(F)(F)F)C3)c3ccccc23)O1 (centres unmarked) [Compound 19] | – | ≥ 80% | – | – | –
CC(NC(=O)c1ccc(C2=NOC(c3cc(C(F)(F)F)cc(C(F)(F)F)c3)(C(F)(F)F)C2)c2ccccc12)C(=O)NC1CC1 (centres unmarked) [Compound 67] | ≥ 80% | ≥ 80% | ≥ 50% | – | at least 80%
O=C(CNC(=O)c1ccc(C2=NOC(c3cccc(OC(F)(F)F)c3)(C(F)(F)F)C2)c2ccccc12)NCC1CC1 (centres unmarked) [Compound 60] | – | ≥ 80% | – | – | –
NC(=O)CNC(=O)c1ccc(C2=NOC(c3cc(C(F)(F)F)cc(C(F)(F)F)c3)(C(F)(F)F)C2)c2ccccc12 (centres unmarked) [Compound 70] | ≥ 80% | ≥ 80% | ≥ 50% | – | –
CC(C)(C)OC(=O)NCCNC(=O)c1ccc(C2=NOC(c3cc(Cl)cc(Cl)c3)(C(F)(F)F)C2)c2ccccc12 (racemic) [Compound 1] | – | – | – | ≥ 50% | –
O=C(CNC(=O)c1ccc(C2=NOC(c3cc(Cl)cc(Cl)c3)(C(F)(F)F)C2)c2ccccc12)NC1CCCCC1 (centres unmarked) [Compound 51] | – | – | – | – | at least 80%
CC(=O)N(C)CCCNC(=O)c1ccc(C2=NOC(c3cc(Cl)cc(Cl)c3)(C(F)(F)F)C2)c2ccccc12 (racemic) [Compound 4] | ≥ 80% | ≥ 80% | ≥ 50% | ≥ 50% | at least 80%
CC(NC(=O)c1ccc(C2=NOC(c3cc(C(F)(F)F)cc(C(F)(F)F)c3)(C(F)(F)F)C2)c2ccccc12)C(=O)O (mixture of isomers) [Compound 31] | ≥ 80% | ≥ 80% | – | – | –
CC(NC(=O)c1ccc(C2=NOC(c3cc(Cl)cc(C(F)(F)F)c3)(C(F)(F)F)C2)c2ccccc12)C(=O)NCC1CC1 (centres unmarked) [Compound 79] | ≥ 80% | ≥ 80% | ≥ 50% | – | at least 80%
O=C(NCC(=O)N1CCC(F)(F)C1)c1ccc(C2=NOC(c3cc(Cl)cc(Cl)c3)(C(F)(F)F)C2)c2ccccc12 (centres unmarked) [Compound 90] | ≥ 80% | ≥ 80% | – | ≥ 50% | at least 80%
CC(C)[C@@H](NC(=O)c1ccc(C2=NOC(c3cc(Cl)cc(C(F)(F)F)c3)(C(F)(F)F)C2)c2ccccc12)C(N)=O (some centres unmarked) [Compound 87] | ≥ 80% | – | – | – | at least 80%
O=C(CNC(=O)c1ccc(C2=NOC(c3cc(Cl)cc(Cl)c3)(C(F)(F)F)C2)c2ccccc12)NC1CC1 (centres unmarked) [Compound 50] | ≥ 80% | ≥ 80% | ≥ 50% | ≥ 50% | at least 80%
O=C(CNC(=O)c1ccc(C2=NOC(c3cc(Cl)cc(C(F)(F)F)c3)(C(F)(F)F)C2)c2ccccc12)NC1CC1 (centres unmarked) [Compound 75] | – | – | ≥ 50% | – | –
CC(NC(=O)c1ccc(C2=NOC(c3cc(C(F)(F)F)cc(C(F)(F)F)c3)(C(F)(F)F)C2)c2ccccc12)C(=O)NCC1CC1 (centres unmarked) [Compound 68] | ≥ 80% | ≥ 80% | ≥ 50% | – | –
CC(NC(=O)c1ccc(C2=NOC(c3cc(Br)cc(C(F)(F)F)c3)(C(F)(F)F)C2)c2ccccc12)C(=O)O (mixture of isomers) [Compound 38] | – | – | – | – | at least 80%
CC(NC(=O)c1ccc(C2=NOC(c3cc(C(F)(F)F)cc(C(F)(F)F)c3)(C(F)(F)F)C2)c2ccccc12)C(N)=O (centres unmarked) [Compound 69] | ≥ 80% | ≥ 80% | ≥ 50% | – | at least 80%
NC(=O)CNC(=O)c1ccc(C2=NOC(c3cc(Cl)cc(C(F)(F)F)c3)(C(F)(F)F)C2)c2ccccc12 (centres unmarked) [Compound 77] | – | – | ≥ 50% | – | –
CC(C)(NC(=O)c1ccc(C2=NOC(c3cc(Cl)cc(Cl)c3)(C(F)(F)F)C2)c2ccccc12)C(=O)O (racemic) [Compound 6] | ≥ 80% | ≥ 80% | – | – | –
O=C(CNC(=O)c1ccc(C2=NOC(c3cc(Cl)cc(Cl)c3)(C(F)(F)F)C2)c2ccccc12)NC1CCCC1 (centres unmarked) [Compound 52] | – | – | – | ≥ 50% | –
